These are yes or no findings as the source states them, for the method shown. Some results given as binding are weak or reduced against the parent protein; the word gives no strength.
Target: binary complex of FGFR1c ligand-binding domain with βKlotho ectodomain (murine; human) (UniProt P11362)
Assay: SPR competition; FGF21 in solution against immobilized FGF21

The chains behind the UniProt entries cited, without tags or fusion partners. Where a name states a change or a piece, a line headed by the entry shows the natural chain unless it says otherwise.
UniProt P11362: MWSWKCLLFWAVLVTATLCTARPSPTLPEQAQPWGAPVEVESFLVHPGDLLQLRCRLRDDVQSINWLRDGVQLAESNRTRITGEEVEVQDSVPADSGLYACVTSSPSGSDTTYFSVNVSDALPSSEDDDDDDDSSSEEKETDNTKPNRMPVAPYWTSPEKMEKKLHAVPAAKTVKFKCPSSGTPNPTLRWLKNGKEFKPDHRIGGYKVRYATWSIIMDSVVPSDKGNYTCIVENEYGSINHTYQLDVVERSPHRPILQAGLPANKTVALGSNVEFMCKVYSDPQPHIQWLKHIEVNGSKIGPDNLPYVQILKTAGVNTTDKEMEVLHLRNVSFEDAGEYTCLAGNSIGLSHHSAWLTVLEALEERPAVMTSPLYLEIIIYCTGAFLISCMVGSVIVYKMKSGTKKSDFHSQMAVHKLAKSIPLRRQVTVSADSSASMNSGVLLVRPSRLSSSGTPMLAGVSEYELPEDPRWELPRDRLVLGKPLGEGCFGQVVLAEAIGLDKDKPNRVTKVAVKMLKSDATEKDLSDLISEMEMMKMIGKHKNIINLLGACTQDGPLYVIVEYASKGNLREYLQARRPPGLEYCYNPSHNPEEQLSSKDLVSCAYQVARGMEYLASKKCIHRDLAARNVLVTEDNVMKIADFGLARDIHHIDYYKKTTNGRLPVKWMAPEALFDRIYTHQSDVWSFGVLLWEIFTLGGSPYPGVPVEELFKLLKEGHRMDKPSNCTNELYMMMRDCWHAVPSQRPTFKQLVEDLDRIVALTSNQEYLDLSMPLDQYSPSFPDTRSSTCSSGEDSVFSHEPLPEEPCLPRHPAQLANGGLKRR
UniProt Q9NSA1: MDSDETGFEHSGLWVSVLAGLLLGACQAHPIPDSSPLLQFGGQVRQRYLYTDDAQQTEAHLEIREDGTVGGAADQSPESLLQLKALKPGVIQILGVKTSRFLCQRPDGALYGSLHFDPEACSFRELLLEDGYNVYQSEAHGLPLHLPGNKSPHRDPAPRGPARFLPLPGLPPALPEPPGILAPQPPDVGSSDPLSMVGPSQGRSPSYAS

binding: binds
Substance: N-terminally hexahistidine-tagged, mature form of human FGF21 (H29 to S209) (from UniProt Q9NSA1 29-209) (ligand)

— US9926355
